Reference: US20070128627A1
Results are given in words; binding and its absence hold for the method and conditions named. Binding seen in cells or lysates may run through a third protein. Some results given as binding are weak or reduced against the parent protein; the word gives no strength.

By UniProt entry, the sequences of proteins in these tests, tags left out. Residues count along the entry.
UniProt P06536: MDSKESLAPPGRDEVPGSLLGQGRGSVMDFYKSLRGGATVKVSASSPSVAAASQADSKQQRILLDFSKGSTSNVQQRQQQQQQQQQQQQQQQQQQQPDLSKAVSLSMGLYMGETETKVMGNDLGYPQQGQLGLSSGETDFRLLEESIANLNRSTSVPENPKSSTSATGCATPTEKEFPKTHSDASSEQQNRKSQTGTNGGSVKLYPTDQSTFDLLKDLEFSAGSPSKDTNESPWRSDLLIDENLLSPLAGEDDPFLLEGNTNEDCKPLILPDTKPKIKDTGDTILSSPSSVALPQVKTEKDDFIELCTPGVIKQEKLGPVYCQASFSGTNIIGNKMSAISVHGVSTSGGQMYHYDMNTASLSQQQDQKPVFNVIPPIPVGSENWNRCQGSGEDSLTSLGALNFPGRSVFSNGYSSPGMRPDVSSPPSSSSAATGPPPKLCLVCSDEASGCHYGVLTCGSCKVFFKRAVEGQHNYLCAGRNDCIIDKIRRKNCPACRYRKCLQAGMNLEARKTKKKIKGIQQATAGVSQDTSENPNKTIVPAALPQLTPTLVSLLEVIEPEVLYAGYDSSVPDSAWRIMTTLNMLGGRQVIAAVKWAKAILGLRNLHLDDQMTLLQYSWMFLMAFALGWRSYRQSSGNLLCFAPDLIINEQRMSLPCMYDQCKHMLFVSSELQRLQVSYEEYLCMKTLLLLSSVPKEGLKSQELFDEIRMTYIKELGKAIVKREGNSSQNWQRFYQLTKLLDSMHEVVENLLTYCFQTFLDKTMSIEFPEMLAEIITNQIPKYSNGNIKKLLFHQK
UniProt Q61026, residues 5-1462: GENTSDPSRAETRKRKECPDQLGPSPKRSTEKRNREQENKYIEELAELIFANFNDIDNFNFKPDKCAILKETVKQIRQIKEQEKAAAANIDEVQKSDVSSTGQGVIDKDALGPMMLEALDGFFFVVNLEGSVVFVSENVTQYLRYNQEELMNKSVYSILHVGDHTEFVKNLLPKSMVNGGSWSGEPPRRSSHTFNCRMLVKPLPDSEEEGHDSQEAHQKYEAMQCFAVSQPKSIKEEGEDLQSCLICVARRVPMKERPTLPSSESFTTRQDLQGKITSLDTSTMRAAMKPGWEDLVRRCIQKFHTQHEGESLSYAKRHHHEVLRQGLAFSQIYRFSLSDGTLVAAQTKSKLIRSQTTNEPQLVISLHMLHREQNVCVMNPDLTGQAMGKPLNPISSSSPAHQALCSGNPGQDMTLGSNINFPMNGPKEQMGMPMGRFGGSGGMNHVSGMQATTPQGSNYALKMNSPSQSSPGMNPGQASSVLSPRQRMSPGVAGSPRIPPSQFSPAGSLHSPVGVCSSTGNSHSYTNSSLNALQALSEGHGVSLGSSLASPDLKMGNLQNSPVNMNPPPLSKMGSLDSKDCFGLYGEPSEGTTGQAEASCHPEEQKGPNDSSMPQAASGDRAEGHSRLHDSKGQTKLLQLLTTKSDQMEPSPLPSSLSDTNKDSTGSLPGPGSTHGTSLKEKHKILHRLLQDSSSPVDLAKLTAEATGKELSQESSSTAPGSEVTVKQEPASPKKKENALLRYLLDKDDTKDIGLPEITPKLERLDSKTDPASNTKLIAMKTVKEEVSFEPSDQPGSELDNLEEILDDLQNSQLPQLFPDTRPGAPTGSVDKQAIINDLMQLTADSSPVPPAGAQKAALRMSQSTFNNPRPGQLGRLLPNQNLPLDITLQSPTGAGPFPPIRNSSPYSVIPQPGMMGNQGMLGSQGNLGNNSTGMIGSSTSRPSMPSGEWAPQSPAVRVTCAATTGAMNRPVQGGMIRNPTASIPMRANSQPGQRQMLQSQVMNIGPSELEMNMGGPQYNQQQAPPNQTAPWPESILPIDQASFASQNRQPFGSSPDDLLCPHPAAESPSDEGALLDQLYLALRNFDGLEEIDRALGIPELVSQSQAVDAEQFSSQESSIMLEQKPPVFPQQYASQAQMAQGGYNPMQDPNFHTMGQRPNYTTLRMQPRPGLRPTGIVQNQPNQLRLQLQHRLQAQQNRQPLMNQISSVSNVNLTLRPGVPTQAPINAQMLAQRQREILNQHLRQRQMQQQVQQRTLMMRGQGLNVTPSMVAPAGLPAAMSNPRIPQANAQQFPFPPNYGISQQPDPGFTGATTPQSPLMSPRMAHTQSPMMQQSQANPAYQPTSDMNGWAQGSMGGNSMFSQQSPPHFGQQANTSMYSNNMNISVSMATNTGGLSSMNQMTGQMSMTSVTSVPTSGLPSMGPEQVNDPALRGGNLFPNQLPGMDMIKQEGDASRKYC

Target: wild type glucocorticoid receptor (GR), full length (UniProt P06536)
Experiment: anti-HA co-immunoprecipitation from cotransfected Cos-7 cells (data not shown)

binding: binds
Substance: HA/GRIP1 (from UniProt Q61026 5-1462)
